As usually defined, the half-life is the time needed for the level to fall by half in the phase considered.

This series in a line: Pharmacokinetic analysis in C57BL/6 mice after gavage administration. The following applies: male, C57BL/6, mouse, in vivo, po, 10 mg/kg.

`Cc1ccc(-c2ccc(F)cc2COc2ccc(CCC(=O)O)cc2)cc1` [TUG-891, reference compound] showed a half-life of 39.6 ± 13.8 min.

The values above are taken from article PMC8624523, “Novel GPR120 Agonists with Improved Pharmacokinetic Profiles for the Treatment of Type 2 Diabetes” (Molecules, 2021).
